From paper PMC4287497, “Phosphorylation of Elp1 by Hrr25 Is Required for Elongator-Dependent tRNA Modification in Yeast” (PLoS Genetics, 2015)
These are yes or no findings as the source states them, for the method shown. Some entries that bind do so weakly or less than the wild type.

Target: T1, Elp3-TAP (S. cerevisiae) (UniProt Q02908)
T1 sequence: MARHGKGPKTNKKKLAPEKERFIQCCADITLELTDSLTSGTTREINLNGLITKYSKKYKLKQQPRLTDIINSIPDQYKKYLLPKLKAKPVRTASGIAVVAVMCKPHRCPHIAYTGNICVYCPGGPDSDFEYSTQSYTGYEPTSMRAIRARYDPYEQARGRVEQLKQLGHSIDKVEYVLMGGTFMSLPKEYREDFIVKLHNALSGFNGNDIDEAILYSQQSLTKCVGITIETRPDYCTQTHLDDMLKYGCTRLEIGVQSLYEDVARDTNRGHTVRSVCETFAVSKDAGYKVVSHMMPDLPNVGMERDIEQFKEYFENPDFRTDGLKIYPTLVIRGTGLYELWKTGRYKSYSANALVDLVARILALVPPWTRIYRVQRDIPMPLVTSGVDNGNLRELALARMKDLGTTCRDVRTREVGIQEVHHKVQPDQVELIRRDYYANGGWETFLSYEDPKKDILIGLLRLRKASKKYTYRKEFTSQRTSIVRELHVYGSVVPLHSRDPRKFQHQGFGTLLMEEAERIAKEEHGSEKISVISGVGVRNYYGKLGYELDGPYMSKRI
Experiment: tandem affinity purification, kinase activity of the purified complex; Elongator purified by TAP-tagged Elp3 and incubated with [γ-32P]ATP without added kinase; phosphorylated Elp1 seen by autoradiography

binding: binds
B1: Hrr25 protein kinase (casein kinase I), endogenous (enzyme, UniProt P29295 1-494)
chain: MDLRVGRKFRIGRKIGSGSFGDIYHGTNLISGEEVAIKLESIRSRHPQLDYESRVYRYLSGGVGIPFIRWFGREGEYNAMVIDLLGPSLEDLFNYCHRRFSFKTVIMLALQMFCRIQYIHGRSFIHRDIKPDNFLMGVGRRGSTVHVIDFGLSKKYRDFNTHRHIPYRENKSLTGTARYASVNTHLGIEQSRRDDLESLGYVLIYFCKGSLPWQGLKATTKKQKYDRIMEKKLNVSVETLCSGLPLEFQEYMAYCKNLKFDEKPDYLFLARLFKDLSIKLEYHNDHLFDWTMLRYTKAMVEKQRDLLIEKGDLNANSNAASASNSTDNKSETFNKIKLLAMKKFPTHFHYYKNEDKHNPSPEEIKQQTILNNNAASSLPEELLNALDKGMENLRQQQPQQQVQSSQPQPQPQQLQQQPNGQRPNYYPEPLLQQQQRDSQEQQQQVPMATTRATQYPPQINSNNFNTNQASVPPQMRSNPQQPPQDKPAGQSIWL
